These results are taken from article PMC3549253, “Effect of repetitive lysine–tryptophan motifs on the bactericidal activity of antimicrobial peptides” (Amino Acids, 2012).

This data set has as its system all 16 microbial strains. The note with it: MHC/GM; larger values indicate greater antimicrobial specificity. The method, then: The antibacterial activities of the peptides against Gram-negative, Gram-positive and antibiotic-resistant bacterial strains were evaluated using the microbroth dilution method (Park et al. [2003]). Aliquots of culture medium containing bacterial suspensions in mid-logarithmic phase at a concentration of 2 × 10^5 colony forming units (CFU)/ml were added to each well of a multiwell plate containing peptide solution serially diluted 2× in 10 mM sodium phosphate buffer (pH 7.2) or phosphate-buffered saline (PBS, 1.5 mM KH2PO4, 2.7 mM KCl, 8.1 mM Na2HPO4, 150 mM NaCl, pH 7.2). Growth inhibition was evaluated by measuring the absorbance at 620 nm using a Versa-Max microplate Elisa Reader (Molecular Devices Co., Sunnyvale, CA, USA) after 24 h of incubation at 37° C.

Marks after values point to notes of the source that are not given here. Residues, ends and D or L forms follow the SMILES beside them. No end group written: not given here.

As for KWKWKW-NH2 [(KW)3, KWKWKW-NH2], the Therapeutic index stood at 2.1.

In turn, KWKWKWKWKW-NH2 [(KW)5, KWKWKWKWKW-NH2] had a Therapeutic index of 4.5.

`CC[C@H](C)[C@H](NC(=O)CN)C(=O)NCC(=O)N[C@@H](C)C(=O)N[C@H](C(=O)N[C@@H](CC(C)C)C(=O)N[C@@H](CCCCN)C(=O)N[C@H](C(=O)N[C@@H](CC(C)C)C(=O)N[C@H](C(=O)N[C@H](C(=O)NCC(=O)N[C@@H](CC(C)C)C(=O)N1CCC[C@H]1C(=O)N[C@@H](C)C(=O)N[C@@H](CC(C)C)C(=O)N[C@H](C(=O)N[C@@H](CO)C(=O)N[C@@H](Cc1c[nH]c2ccccc12)C(=O)N[C@H](C(=O)N[C@@H](CCCCN)C(=O)N[C@@H](CCCNC(=N)N)C(=O)N[C@@H](CCCCN)C(=O)N[C@@H](CCCNC(=N)N)C(=O)N[C@@H](CCC(N)=O)C(=O)N[C@@H](CCC(N)=O)C(N)=O)[C@@H](C)CC)[C@@H](C)CC)[C@@H](C)O)[C@@H](C)O)C(C)C)C(C)C` [Melittin, reference compound] came in with a Therapeutic index of 0.1.

`NCCCC[C@H](NC(=O)[C@H](Cc1c[nH]c2ccccc12)NC(=O)[C@@H](N)CCCCN)C(=O)N[C@@H](Cc1c[nH]c2ccccc12)C(N)=O` [(KW)2, KWKW-NH2] (H-KWKW-NH2): the Therapeutic index worked out at 1.4.

For the compound KWKWKWKW-NH2 [(KW)4, KWKWKWKW-NH2], the Therapeutic index is reported as 19.8 ^h.
